Measured values reported in the supplement of paper PMC7661543.
± gives the standard deviation of the averaged measurements. The effect of the compound repeats well; differences between the knockouts mostly do not.

Test system: BT-20
Test: relative cell number vs DMSO control (72 h) (% of DMSO); higher = less growth inhibition (more cells)
Description: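 QMAP-Seq: a pool of 5 breast cancer cell lines (ZR-75-1, SKBR3, HCC-38, MDA-MB-231, BT-20), each carrying 12 doxycycline-inducible Cas9 sgRNA perturbations (11 knockouts plus non-targeting sgNT), was treated with compounds for 72 h at four 10-fold doses (10 nM-10 uM or 1 nM-1 uM range). Barcodes were amplified and sequenced, and cell number was interpolated from 293T spike-in standard curves. The result is expressed as % of the median of DMSO wells. Two biological replicates.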

[1] = sgRNA knockout: sgATF3, 1000 nM
[2] = sgRNA knockout: sgATF4, 1000 nM
[3] = sgRNA knockout: sgATF6, 1000 nM
[4] = sgRNA knockout: sgATG7, 1000 nM
[5] = sgRNA knockout: sgERN1, 1000 nM
[6] = sgRNA knockout: sgHSF1, 1000 nM
[7] = sgRNA knockout: sgHSF2, 1000 nM
[8] = sgRNA knockout: sgKEAP1, 100 nM
[9] = sgRNA knockout: sgKEAP1, 1000 nM
[10] = sgRNA knockout: sgNFE2L2, 10 nM
[11] = sgRNA knockout: sgNFE2L2, 100 nM
[12] = sgRNA knockout: sgNFE2L2, 1000 nM
[13] = sgRNA knockout: sgSLC35F2, 10 nM
[14] = sgRNA knockout: sgSLC35F2, 100 nM
[15] = sgRNA knockout: sgSLC35F2, 1000 nM
[16] = sgRNA knockout: sgXBP1, 1000 nM

For CCNC(=O)c1noc(-c2cc(C(C)C)c(O)cc2O)c1-c1ccc(CN2CCOCC2)cc1 [NVPAUY922], the relative cell number (sgRNA knockout: sgATF3, 1 nM) was 108 ± 23, the relative cell number (sgRNA knockout: sgATF3, 10 nM) was 81.5 ± 4 and the relative cell number (sgRNA knockout: sgATF3, 100 nM) was 40.5 ± 5.8. It also gave a relative cell number [1] of 38.622 ± 0.0059, a relative cell number (sgRNA knockout: sgATF4, 1 nM) of 108 ± 9 and a relative cell number (sgRNA knockout: sgATF4, 10 nM) of 84.6 ± 3.4. It also gave a relative cell number (sgRNA knockout: sgATF4, 100 nM) of 48.3 ± 2.2, a relative cell number [2] of 47.1 ± 0.74 and a relative cell number (sgRNA knockout: sgATF6, 1 nM) of 101 ± 32. The relative cell number (sgRNA knockout: sgATF6, 10 nM) was 87.6 ± 4.3, the relative cell number (sgRNA knockout: sgATF6, 100 nM) was 40.6 ± 5.2 and the relative cell number [3] was 31.5 ± 3.3. The relative cell number (sgRNA knockout: sgATG7, 1 nM) was 99.5 ± 31, the relative cell number (sgRNA knockout: sgATG7, 10 nM) was 81.4 ± 13 and the relative cell number (sgRNA knockout: sgATG7, 100 nM) was 46.1 ± 1.9. For the same compound, the relative cell number [4] was 31.4 ± 0.76, the relative cell number (sgRNA knockout: sgERN1, 1 nM) was 108 ± 12 and the relative cell number (sgRNA knockout: sgERN1, 10 nM) was 75.8 ± 3.6. For the same compound, the relative cell number (sgRNA knockout: sgERN1, 100 nM) was 37.9 ± 3.1, the relative cell number [5] was 39.5 ± 2.1 and the relative cell number (sgRNA knockout: sgHSF1, 1 nM) was 102 ± 30. The relative cell number (sgRNA knockout: sgHSF1, 10 nM) was 81.7 ± 4.9, the relative cell number (sgRNA knockout: sgHSF1, 100 nM) was 42.9 ± 4.3 and the relative cell number [6] was 37 ± 3.5. The relative cell number (sgRNA knockout: sgHSF2, 1 nM) was 107 ± 48, the relative cell number (sgRNA knockout: sgHSF2, 10 nM) was 81.9 ± 3.2 and the relative cell number (sgRNA knockout: sgHSF2, 100 nM) was 41.3 ± 4.6. It also gave a relative cell number [7] of 43.8 ± 12, a relative cell number (sgRNA knockout: sgKEAP1, 1 nM) of 124 ± 12 and a relative cell number (sgRNA knockout: sgKEAP1, 10 nM) of 76.4 ± 6.7. For the same compound, the relative cell number [8] was 42.7 ± 5.2, the relative cell number [9] was 36.1 ± 2.9 and the relative cell number (sgRNA knockout: sgNFE2L2, 1 nM) was 109 ± 26. For the same compound, the relative cell number [10] was 90.3 ± 14, the relative cell number [11] was 45.4 ± 1.4 and the relative cell number [12] was 29.98 ± 0.099. The relative cell number (sgRNA knockout: sgSLC35F2, 1 nM) was 99.8 ± 29, the relative cell number [13] was 87.4 ± 9.8 and the relative cell number [14] was 42.2 ± 5.5. For the same compound, the relative cell number [15] was 36.3 ± 3.6, the relative cell number (sgRNA knockout: sgXBP1, 1 nM) was 120 ± 27 and the relative cell number (sgRNA knockout: sgXBP1, 10 nM) was 93.81 ± 0.58. The relative cell number (sgRNA knockout: sgXBP1, 100 nM) was 46 ± 7.6 and the relative cell number [16] was 37.1 ± 2.
Work on O=C(Nc1ccc([N+](=O)[O-])cc1Cl)c1cc(Cl)ccc1O [Niclosamide] yielded a relative cell number (sgRNA knockout: sgATF3, 10 nM) of 87.8 ± 11, a relative cell number (sgRNA knockout: sgATF3, 100 nM) of 102 ± 7.1 and a relative cell number [1] of 103 ± 16. For the same compound, the relative cell number (sgRNA knockout: sgATF3, 10000 nM) was 53.5 ± 9.6, the relative cell number (sgRNA knockout: sgATF4, 10 nM) was 107 ± 23 and the relative cell number (sgRNA knockout: sgATF4, 100 nM) was 101 ± 24. The relative cell number [2] was 91.5 ± 2.8, the relative cell number (sgRNA knockout: sgATF4, 10000 nM) was 55.8 ± 4.8 and the relative cell number (sgRNA knockout: sgATF6, 10 nM) was 95.2 ± 17. The relative cell number (sgRNA knockout: sgATF6, 100 nM) was 102 ± 5, the relative cell number [3] was 94.8 ± 11 and the relative cell number (sgRNA knockout: sgATF6, 10000 nM) was 57.6 ± 6.6. It also gave a relative cell number (sgRNA knockout: sgATG7, 10 nM) of 99.9 ± 40, a relative cell number (sgRNA knockout: sgATG7, 100 nM) of 116 ± 20 and a relative cell number [4] of 115 ± 15. The relative cell number (sgRNA knockout: sgATG7, 10000 nM) was 59.3 ± 1.3, the relative cell number (sgRNA knockout: sgERN1, 10 nM) was 96.1 ± 30 and the relative cell number (sgRNA knockout: sgERN1, 100 nM) was 110 ± 3.2. It also gave a relative cell number [5] of 120 ± 25, a relative cell number (sgRNA knockout: sgERN1, 10000 nM) of 56.1 ± 4 and a relative cell number (sgRNA knockout: sgHSF1, 10 nM) of 100 ± 8.6. The relative cell number (sgRNA knockout: sgHSF1, 100 nM) was 92.5 ± 25, the relative cell number [6] was 99.4 ± 6.5 and the relative cell number (sgRNA knockout: sgHSF1, 10000 nM) was 53.6 ± 9.3. It also gave a relative cell number (sgRNA knockout: sgHSF2, 10 nM) of 89.8 ± 13, a relative cell number (sgRNA knockout: sgHSF2, 100 nM) of 99.7 ± 6.8 and a relative cell number [7] of 106 ± 8.4. It also gave a relative cell number (sgRNA knockout: sgHSF2, 10000 nM) of 72.4 ± 3.4, a relative cell number (sgRNA knockout: sgKEAP1, 10 nM) of 95.5 ± 11 and a relative cell number [8] of 101 ± 29. For the same compound, the relative cell number [9] was 94.3 ± 5.9, the relative cell number (sgRNA knockout: sgKEAP1, 10000 nM) was 52.4 ± 2.4 and the relative cell number [10] was 103 ± 9.5. It also gave a relative cell number [11] of 113 ± 6.5, a relative cell number [12] of 99.1 ± 5.4 and a relative cell number (sgRNA knockout: sgNFE2L2, 10000 nM) of 66.8 ± 6.6. For the same compound, the relative cell number [13] was 91.7 ± 1.2, the relative cell number [14] was 102 ± 18 and the relative cell number [15] was 94.9 ± 9.7. It also gave a relative cell number (sgRNA knockout: sgSLC35F2, 10000 nM) of 58.6 ± 10, a relative cell number (sgRNA knockout: sgXBP1, 10 nM) of 104 ± 42 and a relative cell number (sgRNA knockout: sgXBP1, 100 nM) of 109 ± 13. It also gave a relative cell number [16] of 109 ± 32 and a relative cell number (sgRNA knockout: sgXBP1, 10000 nM) of 48.5 ± 0.57.
